From the supplement of paper PMC12823440, “Inhibitors supercharge kinase turnover through native proteolytic circuits” (Nature, 2025)
Counter-ions that a name gives are not always drawn. The list shows a part of the results. Hit calls seldom repeat between salt and free forms of one compound.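 In K562 cells expressing nanoluciferase-fused kinases, luminescence was recorded at 4 h intervals between 2 and 18 h, normalized as percent of control with DMSO at 100% and a positive control at 0%. A significant (2 sigma) signal drop marks a time point as decreased. The authors' rule for a hit is not shown and takes in more than the number of time points.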

The chains behind the UniProt entries cited, without tags or fusion partners. Where a name states a change or a piece, a line headed by the entry shows the natural chain unless it says otherwise.
UniProt Q8IWU2: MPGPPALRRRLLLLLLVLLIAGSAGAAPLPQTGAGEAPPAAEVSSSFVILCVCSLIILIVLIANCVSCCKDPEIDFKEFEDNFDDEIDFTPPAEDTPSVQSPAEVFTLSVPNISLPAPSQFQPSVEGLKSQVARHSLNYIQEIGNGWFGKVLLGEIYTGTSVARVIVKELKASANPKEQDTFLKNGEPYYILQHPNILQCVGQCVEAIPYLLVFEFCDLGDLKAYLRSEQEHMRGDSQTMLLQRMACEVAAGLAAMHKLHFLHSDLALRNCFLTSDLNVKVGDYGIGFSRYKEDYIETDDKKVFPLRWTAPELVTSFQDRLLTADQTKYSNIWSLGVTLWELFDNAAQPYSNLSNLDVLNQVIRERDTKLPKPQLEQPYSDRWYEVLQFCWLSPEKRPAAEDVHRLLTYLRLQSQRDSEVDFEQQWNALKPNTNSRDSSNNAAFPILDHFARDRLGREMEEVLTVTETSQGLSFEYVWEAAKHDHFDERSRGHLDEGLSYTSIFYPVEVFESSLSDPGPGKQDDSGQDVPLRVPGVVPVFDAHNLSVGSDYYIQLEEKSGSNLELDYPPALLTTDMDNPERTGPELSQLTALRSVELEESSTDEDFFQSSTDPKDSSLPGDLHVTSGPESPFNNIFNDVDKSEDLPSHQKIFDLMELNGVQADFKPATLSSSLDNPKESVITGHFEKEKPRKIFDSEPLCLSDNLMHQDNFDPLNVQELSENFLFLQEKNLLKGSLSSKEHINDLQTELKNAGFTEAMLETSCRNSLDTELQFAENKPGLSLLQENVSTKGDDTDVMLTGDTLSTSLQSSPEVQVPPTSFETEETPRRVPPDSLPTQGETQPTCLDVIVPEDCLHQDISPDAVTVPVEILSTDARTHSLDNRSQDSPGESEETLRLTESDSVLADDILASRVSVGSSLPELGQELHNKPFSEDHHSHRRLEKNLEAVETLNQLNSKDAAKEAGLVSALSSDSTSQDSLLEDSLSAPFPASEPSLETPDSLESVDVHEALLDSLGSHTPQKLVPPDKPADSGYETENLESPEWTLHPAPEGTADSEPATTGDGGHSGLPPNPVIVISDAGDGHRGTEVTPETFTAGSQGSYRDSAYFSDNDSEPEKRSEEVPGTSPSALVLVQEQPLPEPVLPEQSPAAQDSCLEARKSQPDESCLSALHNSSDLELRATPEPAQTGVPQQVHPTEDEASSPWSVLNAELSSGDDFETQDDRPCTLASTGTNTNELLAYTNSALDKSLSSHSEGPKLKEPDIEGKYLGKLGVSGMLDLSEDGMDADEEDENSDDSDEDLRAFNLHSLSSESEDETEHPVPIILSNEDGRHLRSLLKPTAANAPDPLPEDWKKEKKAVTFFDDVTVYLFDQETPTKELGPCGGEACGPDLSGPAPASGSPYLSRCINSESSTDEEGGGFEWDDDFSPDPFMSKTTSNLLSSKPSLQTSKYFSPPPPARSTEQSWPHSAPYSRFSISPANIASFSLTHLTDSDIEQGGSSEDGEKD
UniProt P31152, whole entry: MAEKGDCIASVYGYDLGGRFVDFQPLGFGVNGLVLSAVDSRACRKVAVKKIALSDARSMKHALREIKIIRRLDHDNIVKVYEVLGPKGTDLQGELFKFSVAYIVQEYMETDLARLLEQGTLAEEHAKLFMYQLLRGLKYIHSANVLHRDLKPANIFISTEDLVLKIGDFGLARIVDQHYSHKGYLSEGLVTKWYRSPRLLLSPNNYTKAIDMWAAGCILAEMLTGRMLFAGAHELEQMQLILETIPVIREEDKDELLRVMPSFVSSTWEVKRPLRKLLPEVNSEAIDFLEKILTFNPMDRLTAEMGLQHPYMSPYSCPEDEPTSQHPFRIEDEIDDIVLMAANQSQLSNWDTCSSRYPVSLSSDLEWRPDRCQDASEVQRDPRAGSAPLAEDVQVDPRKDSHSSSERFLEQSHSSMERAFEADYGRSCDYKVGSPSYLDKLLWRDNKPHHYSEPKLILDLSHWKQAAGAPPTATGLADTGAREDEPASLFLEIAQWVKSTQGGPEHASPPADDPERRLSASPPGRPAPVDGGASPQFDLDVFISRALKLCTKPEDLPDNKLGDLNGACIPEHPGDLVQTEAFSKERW
UniProt P49137, whole entry, looked up: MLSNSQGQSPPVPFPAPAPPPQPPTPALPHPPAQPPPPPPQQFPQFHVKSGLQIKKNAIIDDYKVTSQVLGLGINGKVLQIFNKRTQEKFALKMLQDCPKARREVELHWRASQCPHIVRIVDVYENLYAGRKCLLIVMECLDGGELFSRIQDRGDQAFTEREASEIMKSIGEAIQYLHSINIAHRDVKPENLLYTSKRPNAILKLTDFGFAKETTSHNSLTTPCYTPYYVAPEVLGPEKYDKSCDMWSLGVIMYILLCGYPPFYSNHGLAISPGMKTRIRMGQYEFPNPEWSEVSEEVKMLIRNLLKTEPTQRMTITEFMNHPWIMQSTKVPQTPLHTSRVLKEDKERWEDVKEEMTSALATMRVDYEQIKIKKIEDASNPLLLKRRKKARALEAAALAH
UniProt Q16620, whole entry, looked up: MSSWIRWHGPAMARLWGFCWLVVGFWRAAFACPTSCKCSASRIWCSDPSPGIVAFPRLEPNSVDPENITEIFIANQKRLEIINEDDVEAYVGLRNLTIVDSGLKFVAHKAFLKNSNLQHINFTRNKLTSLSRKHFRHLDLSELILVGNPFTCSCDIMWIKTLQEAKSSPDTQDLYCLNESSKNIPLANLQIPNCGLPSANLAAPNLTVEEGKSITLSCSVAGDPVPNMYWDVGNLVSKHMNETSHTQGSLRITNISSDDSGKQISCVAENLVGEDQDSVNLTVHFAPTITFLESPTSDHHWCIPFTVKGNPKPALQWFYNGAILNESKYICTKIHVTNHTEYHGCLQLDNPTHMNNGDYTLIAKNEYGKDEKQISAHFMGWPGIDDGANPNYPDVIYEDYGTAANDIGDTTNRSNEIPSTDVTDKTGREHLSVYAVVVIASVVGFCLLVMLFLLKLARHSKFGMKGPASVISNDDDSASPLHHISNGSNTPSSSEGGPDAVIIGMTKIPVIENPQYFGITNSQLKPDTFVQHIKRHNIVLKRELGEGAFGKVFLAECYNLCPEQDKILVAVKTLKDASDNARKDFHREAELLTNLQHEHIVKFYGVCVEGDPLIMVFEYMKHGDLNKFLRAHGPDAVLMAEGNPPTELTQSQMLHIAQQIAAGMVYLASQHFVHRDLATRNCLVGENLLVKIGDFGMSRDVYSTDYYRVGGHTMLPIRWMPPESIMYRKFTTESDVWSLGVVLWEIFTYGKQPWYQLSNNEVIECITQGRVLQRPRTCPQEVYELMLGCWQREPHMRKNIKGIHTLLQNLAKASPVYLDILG
UniProt O96013: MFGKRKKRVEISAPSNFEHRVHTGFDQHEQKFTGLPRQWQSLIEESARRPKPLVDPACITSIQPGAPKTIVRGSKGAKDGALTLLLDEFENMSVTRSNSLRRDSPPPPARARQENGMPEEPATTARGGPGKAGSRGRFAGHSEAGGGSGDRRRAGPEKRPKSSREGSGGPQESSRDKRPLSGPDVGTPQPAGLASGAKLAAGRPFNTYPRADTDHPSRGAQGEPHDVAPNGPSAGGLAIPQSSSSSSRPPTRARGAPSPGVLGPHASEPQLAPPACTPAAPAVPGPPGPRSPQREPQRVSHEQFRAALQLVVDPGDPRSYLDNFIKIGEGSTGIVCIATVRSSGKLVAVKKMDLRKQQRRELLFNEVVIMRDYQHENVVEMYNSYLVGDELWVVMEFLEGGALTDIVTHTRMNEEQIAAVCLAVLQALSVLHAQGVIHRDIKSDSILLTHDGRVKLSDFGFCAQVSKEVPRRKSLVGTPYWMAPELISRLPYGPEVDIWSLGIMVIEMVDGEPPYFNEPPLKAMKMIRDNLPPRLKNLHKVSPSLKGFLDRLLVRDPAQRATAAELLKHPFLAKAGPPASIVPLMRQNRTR
UniProt Q96KB5: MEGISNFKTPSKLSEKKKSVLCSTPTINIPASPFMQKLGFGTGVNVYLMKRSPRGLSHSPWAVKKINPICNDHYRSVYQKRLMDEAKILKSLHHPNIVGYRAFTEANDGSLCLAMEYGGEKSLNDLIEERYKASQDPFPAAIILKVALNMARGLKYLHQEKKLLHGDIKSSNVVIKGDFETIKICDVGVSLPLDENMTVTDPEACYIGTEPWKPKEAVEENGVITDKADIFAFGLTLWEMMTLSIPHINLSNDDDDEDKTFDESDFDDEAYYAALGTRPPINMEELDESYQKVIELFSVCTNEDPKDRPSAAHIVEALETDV
UniProt P09619, whole entry: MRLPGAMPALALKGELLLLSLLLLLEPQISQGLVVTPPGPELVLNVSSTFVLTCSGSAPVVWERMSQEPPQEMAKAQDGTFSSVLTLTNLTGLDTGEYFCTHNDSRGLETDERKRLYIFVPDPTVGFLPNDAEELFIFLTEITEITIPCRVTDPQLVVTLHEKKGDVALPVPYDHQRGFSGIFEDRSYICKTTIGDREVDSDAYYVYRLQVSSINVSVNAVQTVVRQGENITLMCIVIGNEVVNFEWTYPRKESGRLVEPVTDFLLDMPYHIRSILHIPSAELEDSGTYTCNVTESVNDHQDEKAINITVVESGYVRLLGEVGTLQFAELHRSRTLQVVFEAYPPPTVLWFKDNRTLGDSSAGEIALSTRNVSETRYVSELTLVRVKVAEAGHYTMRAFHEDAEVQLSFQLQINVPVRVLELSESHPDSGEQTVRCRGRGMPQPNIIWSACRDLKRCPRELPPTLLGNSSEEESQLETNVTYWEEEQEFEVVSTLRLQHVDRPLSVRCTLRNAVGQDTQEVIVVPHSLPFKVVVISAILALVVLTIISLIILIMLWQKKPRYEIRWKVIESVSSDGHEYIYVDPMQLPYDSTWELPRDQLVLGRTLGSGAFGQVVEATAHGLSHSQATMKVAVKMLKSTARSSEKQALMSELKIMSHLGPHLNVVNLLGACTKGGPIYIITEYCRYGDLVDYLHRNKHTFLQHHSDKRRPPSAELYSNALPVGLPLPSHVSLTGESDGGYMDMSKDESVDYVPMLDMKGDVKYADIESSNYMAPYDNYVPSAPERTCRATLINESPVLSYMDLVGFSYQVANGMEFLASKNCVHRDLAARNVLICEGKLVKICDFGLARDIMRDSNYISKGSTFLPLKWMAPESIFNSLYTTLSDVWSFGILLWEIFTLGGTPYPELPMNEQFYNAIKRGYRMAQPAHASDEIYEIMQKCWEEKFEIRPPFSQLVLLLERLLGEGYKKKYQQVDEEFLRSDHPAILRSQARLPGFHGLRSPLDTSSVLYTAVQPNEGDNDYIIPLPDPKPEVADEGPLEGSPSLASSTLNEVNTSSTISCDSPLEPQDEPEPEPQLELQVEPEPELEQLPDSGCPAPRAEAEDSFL
UniProt O15530: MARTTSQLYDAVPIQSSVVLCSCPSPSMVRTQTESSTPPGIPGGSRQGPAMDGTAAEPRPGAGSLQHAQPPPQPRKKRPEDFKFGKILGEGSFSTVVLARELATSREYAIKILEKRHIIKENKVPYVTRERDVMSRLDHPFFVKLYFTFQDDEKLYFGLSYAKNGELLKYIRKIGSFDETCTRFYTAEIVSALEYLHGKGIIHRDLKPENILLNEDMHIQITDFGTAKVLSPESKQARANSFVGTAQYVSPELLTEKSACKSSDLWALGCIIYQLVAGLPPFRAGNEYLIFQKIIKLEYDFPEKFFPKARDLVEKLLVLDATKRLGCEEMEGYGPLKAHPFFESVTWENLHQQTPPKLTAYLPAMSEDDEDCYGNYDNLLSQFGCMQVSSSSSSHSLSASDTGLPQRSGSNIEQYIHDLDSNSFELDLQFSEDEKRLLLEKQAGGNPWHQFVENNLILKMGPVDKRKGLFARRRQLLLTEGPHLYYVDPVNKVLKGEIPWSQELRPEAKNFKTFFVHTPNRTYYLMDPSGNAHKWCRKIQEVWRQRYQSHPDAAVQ
UniProt Q13131: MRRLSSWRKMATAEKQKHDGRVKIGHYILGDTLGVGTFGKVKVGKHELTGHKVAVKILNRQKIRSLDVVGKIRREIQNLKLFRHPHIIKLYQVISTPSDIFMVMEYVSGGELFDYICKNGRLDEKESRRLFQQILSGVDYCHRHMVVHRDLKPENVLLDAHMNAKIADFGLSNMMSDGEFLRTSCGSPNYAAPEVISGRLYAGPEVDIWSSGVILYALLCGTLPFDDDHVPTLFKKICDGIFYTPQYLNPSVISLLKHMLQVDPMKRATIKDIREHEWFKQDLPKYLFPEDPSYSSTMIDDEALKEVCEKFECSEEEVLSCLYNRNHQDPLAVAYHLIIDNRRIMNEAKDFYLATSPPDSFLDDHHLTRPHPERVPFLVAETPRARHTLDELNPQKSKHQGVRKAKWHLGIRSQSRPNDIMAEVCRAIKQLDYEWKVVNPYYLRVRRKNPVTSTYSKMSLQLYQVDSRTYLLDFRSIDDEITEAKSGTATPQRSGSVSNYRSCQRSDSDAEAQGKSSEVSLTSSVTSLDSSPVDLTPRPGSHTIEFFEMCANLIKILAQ

Experiments:
Experiment in all cases: number of time points (of 5) at which kinase-Nluc abundance scored as decreased, DMSO-normalised (count); higher = more persistent destabilization
Conditions in all cases: K562; 2-18 h
LMTK2 = LMTK2 (UniProt Q8IWU2)
LYN = LYN (UniProt P07948)
MAP2K1 = MAP2K1 (UniProt Q02750)
MAP2K2 = MAP2K2 (UniProt P36507)
MAP4K2 = MAP4K2 (UniProt Q12851)
MAPK1 = MAPK1 (UniProt P28482)
MAPK4 = MAPK4 (UniProt P31152)
MAPKAPK2 = MAPKAPK2 (UniProt P49137)
MKNK1 = MKNK1 (UniProt Q9BUB5)
NTRK2 = NTRK2 (UniProt Q16620)
NTRK3 = NTRK3 (UniProt Q16288)
PAK4 = PAK4 (UniProt O96013)
PBK = PBK (UniProt Q96KB5)
PDGFRB = PDGFRB (UniProt P09619)
PDK1 = PDK1 (UniProt Q15118)
PDPK1 = PDPK1 (UniProt O15530)
PIK4CA = PIK4CA (UniProt P42356)
PIK4CB = PIK4CB (UniProt Q9UBF8)
PLK1 = PLK1 (UniProt P53350)
PRKAA1 = PRKAA1 (UniProt Q13131)

Compound | number of time points (LMTK2) | number of time points (LYN) | number of time points (MAP2K1) | number of time points (MAP2K2) | number of time points (MAP4K2) | number of time points (MAPK1) | number of time points (MAPK4) | number of time points (MAPKAPK2) | number of time points (MKNK1) | number of time points (NTRK2) | number of time points (NTRK3) | number of time points (PAK4) | number of time points (PBK) | number of time points (PDGFRB) | number of time points (PDK1) | number of time points (PDPK1) | number of time points (PIK4CA) | number of time points (PIK4CB) | number of time points (PLK1) | number of time points (PRKAA1)
CC(C)N1CCN(c2ccc(Nc3ncc4cc5n(c4n3)C3(CCCCC3)CNC5=O)nc2)CC1 [Lerociclib (dihydrochloride)] (2 µM) | 2 | 0 | 0 | 0 | 0 | 0 | 0 | 0 | 0 | 3 | 0 | 0 | 0 | 2 | 0 | 0 | 0 | 0 | 0 | 0
CS(=O)(=O)c1ccc(-c2cnc(N)c(-c3ccc(C(F)(F)F)nc3)c2)cc1 (10 µM) | 0 | 0 | 0 | 0 | 0 | 0 | 0 | 0 | 0 | 0 | 0 | 0 | 0 | 0 | 0 | 0 | 0 | 0 | 0 | 0
c1cc(NC2CCNCC2)nc(-c2cnc3ccccn23)c1 [IRAK inhibitor 1] (10 µM) | 0 | 0 | 0 | 0 | 0 | 0 | 0 | 0 | 0 | 0 | 0 | 0 | 0 | 0 | 0 | 0 | 0 | 0 | 0 | 1
Cn1cnc([N+](=O)[O-])c1C[N+](C)(C)C/C=C/C(=O)Nc1cc2c(Nc3ccc(Cl)c(Br)c3)ncnc2cn1 [Tarloxotinib (bromide)] (10 µM) | 0 | 0 | 0 | 0 | 0 | 0 | 0 | 0 | 0 | 0 | 0 | 0 | 0 | 0 | 0 | 0 | 0 | 0 | 0 | 0
CN(c1ccc(NC(=O)Nc2ccc(OC(F)(F)F)cc2)cc1)c1ccnc(Nc2cccc(S(N)(=O)=O)c2)n1 (2.5 µM) | 3 | 0 | 0 | 0 | 0 | 0 | 1 | 0 | 3 | 1 | 1 | 0 | 0 | 3 | 0 | 3 | 2 | 3 | 1 | 1
Oc1cc(O)c2c(c1)OC1(c3ccc(O)c(O)c3)Oc3cc(O)c4c(c3C2C1O)OC(c1ccc(O)c(O)c1)C(O)C4 (stereo not given) [Procyanidin A1] (10 µM) | 0 | 0 | 0 | 0 | 0 | 0 | 0 | 0 | 0 | 0 | 0 | 0 | 0 | 0 | 0 | 0 | 0 | 0 | 0 | 0
Nc1n[nH]c2nc(-c3ccc(NS(=O)(=O)c4cc(Cl)ccc4F)cc3)cnc12 (10 µM) | 0 | 0 | 0 | 0 | 0 | 0 | 0 | 0 | 0 | 0 | 0 | 0 | 0 | 0 | 0 | 0 | 0 | 0 | 0 | 0
CC(=O)N1CCC(c2cc(-c3ccc(NC(=O)c4cccn(-c5ccc(F)cc5)c4=O)cc3F)c3c(N)ncnn23)CC1 (0.5 µM) | 0 | 0 | 0 | 0 | 0 | 0 | 0 | 0 | 0 | 0 | 0 | 0 | 0 | 0 | 0 | 0 | 0 | 0 | 0 | 0
C[C@H](NC(=O)[C@H]1NCC[C@@H]1O)c1ccc(-c2noc(CCC3CCCC3)n2)cc1 (10 µM) | 0 | 0 | 0 | 0 | 0 | 0 | 0 | 0 | 0 | 0 | 0 | 0 | 0 | 0 | 0 | 0 | 0 | 0 | 0 | 0
C=CC(=O)Nc1cc(-n2c(=O)ccc3cnc4ccc(-c5ccc(NS(C)(=O)=O)cc5)cc4c32)ccc1C (10 µM) | 0 | 0 | 0 | 0 | 0 | 0 | 0 | 0 | 0 | 0 | 0 | 0 | 0 | 0 | 0 | 0 | 0 | 0 | 0 | 0
COc1nn(C)cc1Nc1nccc(-c2c[nH]c3c(NC(=O)[C@@H](C)N4CCN(C)CC4)cccc23)n1 (10 µM) | 0 | 0 | 0 | 0 | 0 | 0 | 0 | 0 | 0 | 0 | 0 | 0 | 0 | 0 | 0 | 0 | 0 | 0 | 0 | 0
O=c1cc(-c2cccc3c2Sc2ccccc2S3)oc(N2CCOCC2)c1 (10 µM) | 0 | 0 | 0 | 0 | 0 | 0 | 0 | 0 | 0 | 0 | 0 | 0 | 0 | 0 | 0 | 0 | 0 | 0 | 0 | 0

Reformatted: 2 of the compounds above
Compound	number of time points (LMTK2)	number of time points (LYN)	number of time points (MAP2K1)	number of time points (MAP2K2)	number of time points (MAP4K2)	number of time points (MAPK1)	number of time points (MAPK4)	number of time points (MAPKAPK2)	number of time points (MKNK1)	number of time points (NTRK2)	number of time points (NTRK3)	number of time points (PAK4)	number of time points (PBK)	number of time points (PDGFRB)	number of time points (PDK1)	number of time points (PDPK1)	number of time points (PIK4CA)	number of time points (PIK4CB)	number of time points (PLK1)	number of time points (PRKAA1)
C[C@H](NC(=O)[C@H]1NCC[C@@H]1O)c1ccc(-c2noc(CCC3CCCC3)n2)cc1 (10 µM)	0	0	0	0	0	0	0	0	0	0	0	0	0	0	0	0	0	0	0	0
C=CC(=O)Nc1cc(-n2c(=O)ccc3cnc4ccc(-c5ccc(NS(C)(=O)=O)cc5)cc4c32)ccc1C (10 µM)	0	0	0	0	0	0	0	0	0	0	0	0	0	0	0	0	0	0	0	0
